These are yes or no findings as the source states them, for the method shown. Binding seen in cells or lysates may run through a third protein. A yes stands for co-enrichment or nearness to the bait. Other partners may have been found.
B1: UBE2J1 (mouse) (protein, UniProt Q9JJZ4 1-318)
chain: METRYNLKSPAVKRLMKEAAELKDPTDHYHAQPLEDNLFEWHFTVRGPPDSDFDGGVYHGRIVLPPEYPMKPPSIILLTANGRFEVGKKICLSISGHHPETWQPSWSIRTALLAIIGFMPTKGEGAIGSLDYTPEERRALAKKSQDFCCEGCGSAMKDVLLPLKSGSGSSQADQEAKELARQISFKAEVNSSGKTIAESDLNQCFSLNDSQDDLPTTFQGATASTSYGAQNPSGAPLPQPTQPAPKNTSMSPRQRRAQQQSQRRPSTSPDVLQGQPPRAHHTEHGGSAMLIIILTLALAALIFRRIYLANEYIFDFEL
B2: lipoprotein lipase (mouse) (protein, UniProt P11152 28-474)
chain: ADAGRDFSDIESKFALRTPEDTAEDTCHLIPGLADSVSNCHFNHSSKTFVVIHGWTVTGMYESWVPKLVAALYKREPDSNVIVVDWLYRAQQHYPVSAGYTKLVGNDVARFINWMEEEFNYPLDNVHLLGYSLGAHAAGVAGSLTNKKVNRITGLDPAGPNFEYAEAPSRLSPDDADFVDVLHTFTRGSPGRSIGIQKPVGHVDIYPNGGTFQPGCNIGEAIRVIAERGLGDVDQLVKCSHERSIHLFIDSLLNEENPSKAYRCNSKEAFEKGLCLSCRKNRCNNLGYEINKVRAKRSSKMYLKTRSQMPYKVFHYQVKIHFSGTEDGKQHNQAFEISLYGTVAESENIPFTLPEVSTNKTYSFLIYTEVDIGELLMMKLKWISDSYFSWPDWWSSPSFVIERIRVKAGETQKKVIFCAREKVSHLQKGKDSAVFVKCHDKSLKKSG
B3: calnexin (mouse) (protein, UniProt P35564 21-591)
chain: HDGHDDDAIDIEDDLDDVIEEVEDSKSKSDASTPPSPKVTYKAPVPTGEVYFADSFDRGSLSGWILSKAKKDDTDDEIAKYDGKWEVDEMKETKLPGDKGLVLMSRAKHHAISAKLNKPFLFDTKPLIVQYEVNFQNGIECGGAYVKLLSKTAELSLDQFHDKTPYTIMFGPDKCGEDYKLHFIFRHKNPKTGVYEEKHAKRPDADLKTYFTDKKTHLYTLILNPDNSFEILVDQSVVNSGNLLNDMTPPVNPSREIEDPEDRKPEDWDERPKIADPDAVKPDDWDEDAPSKIPDEEATKPEGWLDDEPEYIPDPDAEKPEDWDEDMDGEWEAPQIANPKCESAPGCGVWQRPMIDNPNYKGKWKPPMIDNPNYQGIWKPRKIPNPDFFEDLEPFKMTPFSAIGLELWSMTSDIFFDNFIISGDRRVVDDWANDGWGLKKAADGAAEPGVVLQMLEAAEERPWLWVVYILTVALPVFLVILFCCSGKKQSNAMEYKKTDAPQPDVKDEEGKEEEKNKRDEEEEEEKLEEKQKSDAEEDGVTGSQDEEDSKPKAEEDEILNRSPRNRKPRRE
B4: SLC25A16 (mouse) (protein, UniProt Q8C0K5 1-332)
chain: MAALVAAAALAAAEPAPAVPQAAGSGGPTSRRDFYWLRSFLAGGIAGCCAKTTVAPLDRVKVLLQAHNRHYKHLGVLSTLRAVPQKEGYLGLYKGNGAMMIRIFPYGAIQFMAFEHYKTFITTKLGVSGHVHRLMAGSMAGMTAVICTYPLDVVRVRLAFQVKGEHTYSGIIHAFKTIYAKEGGFLGFYRGLMPTILGMAPYAGVSFFTFGTLKSVGLSYAPALLGRPSSDNPNVLVLKTHINLLCGGVAGAIAQTISYPFDVTRRRMQLGAVLPEFEKCLTMRETMKYVYGQHGIRRGLYRGLSLNYIRCIPSQAVAFTTYELMKQFFHLN
B5: SLC25A35 (mouse) (protein, UniProt Q5SWT3 1-300)
chain: MDFLMSGVAACGACVFTNPLEVVKTRMQLQGELQAPGTYQRHYRNVFHAFFTIGKVDGLAALQKGLGPALLYQFLMNGIRLGTYGLAESRGYLHTNEGTHSPVRSAAAGALAGVMGAYLGSPIYMVKTHLQAQAASEIAVGHQYKHQGMFQALTEIGQKHGLVGLWRGAVGGLPRVVIGSSTQLCTFSSIKDLLSQWEIFPPQSWKVALAAAMVSGVAIVVAMTPFDVASTRLYNQPTDTRGKGLMYRGILDALLQTARTEGFFGMYKGIGASYFRLGPHTILSLFFWDQLRSFYNTYAK
B6: NADH dehydrogenase NDUFA1 (mouse) (protein, UniProt O35683 1-70)
chain: MWFEILPGLAIMGVCLVIPGVSTAYIHKFTNGGKEKRVARVQYQWYLMERDRRISGVNRYYVSKGLENID
B7: adiponectin (mouse) (protein, UniProt Q60994 18-247)
chain: EDDVTTTEELAPALVPPPKGTCAGWMAGIPGHPGHNGTPGRDGRDGTPGEKGEKGDAGLLGPKGETGDVGMTGAEGPRGFPGTPGRKGEPGEAAYVYRSAFSVGLETRVTVPNVPIRFTKIFYNQQNHYDGSTGKFYCNIPGLYYFSYHITVYMKDVKVSLFKKDKAVLFTYDQYQEKNVDQASGSVLLHLEVGDQVWLQVYGDGDHNGLYADNVNDSTFTGFLLYHDTN
B8: Group XIIA secretory phospholipase A2 (mouse) (protein, UniProt Q9EPR2 26-192)
chain: QEQDQTTDWRATLKTIRNGIHKIDTYLNAALDLLGGEDGLCQYKCSDGSKPVPRYGYKPSPPNGCGSPLFGVHLNIGIPSLTKCCNQHDRCYETCGKSKNDCDEEFQYCLSKICRDVQKTLGLSQNVQACETTVELLFDSVIHLGCKPYLDSQRAACWCRYEEKTDL
B9: PIGK (mouse) (protein, UniProt Q9CXY9 28-395)
chain: GHIEDQAEQFFRSGHTNNWAVLVCTSRFWFNYRHVANTLSVYRSVKRLGIPDSHIVLMLADDMACNARNPKPATVFSHKNMELNVYGDDVEVDYRSYEVTVENFLRVLTGRVPPSTPRSKRLLSDDRSNILIYMTGHGGNGFLKFQDSEEITNIELADAFEQMWQKRRYNELLFIIDTCQGASMYERFYSPNIMALASSQVGEDSLSHQPDPAIGVHLMDRYTFYVLEFLEEINPASQTNMNDLFQVCPKSLCVSTPGHRTDLFQRDPKNVLITDFFGSVRKVEITTEKISLQWDSQVVDSSSKEDGTAEERMGPLKYAEQLPVAQIIHQKPKPRDWHPPGGFILGLWALIIMVFFKTYGIKHMKFIF
B10: Group XIIA secretory phospholipase A2 (protein, UniProt Q9BZM1 23-189)
chain: QEQAQTTDWRATLKTIRNGVHKIDTYLNAALDLLGGEDGLCQYKCSDGSKPFPRYGYKPSPPNGCGSPLFGVHLNIGIPSLTKCCNQHDRCYETCGKSKNDCDEEFQYCLSKICRDVQKTLGLTQHVQACETTVELLFDSVIHLGCKPYLDSQRAACRCHYEEKTDL
B11: alpha-L-fucosidase (protein, UniProt Q9BTY2 29-467)
chain: HSATRFDPTWESLDARQLPAWFDQAKFGIFIHWGVFSVPSFGSEWFWWYWQKEKIPKYVEFMKDNYPPSFKYEDFGPLFTAKFFNANQWADIFQASGAKYIVLTSKHHEGFTLWGSEYSWNWNAIDEGPKRDIVKELEVAIRNRTDLRFGLYYSLFEWFHPLFLEDESSSFHKRQFPVSKTLPELYELVNNYQPEVLWSDGDGGAPDQYWNSTGFLAWLYNESPVRGTVVTNDRWGAGSICKHGGFYTCSDRYNPGHLLPHKWENCMTIDKLSWGYRREAGISDYLTIEELVKQLVETVSCGGNLLMNIGPTLDGTISVVFEERLRQMGSWLKVNGEAIYETHTWRSQNDTVTPDVWYTSKPKEKLVYAIFLKWPTSGQLFLGHPKAILGATEVKLLGHGQPLNWISLEQNGIMVELPQLTIHQMPCKWGWALALTNVI
B12: phosphatidylinositol glycan anchor biosynthesis class K (protein, UniProt Q92643 28-395)
chain: SHIEDQAEQFFRSGHTNNWAVLVCTSRFWFNYRHVANTLSVYRSVKRLGIPDSHIVLMLADDMACNPRNPKPATVFSHKNMELNVYGDDVEVDYRSYEVTVENFLRVLTGRIPPSTPRSKRLLSDDRSNILIYMTGHGGNGFLKFQDSEEITNIELADAFEQMWQKRRYNELLFIIDTCQGASMYERFYSPNIMALASSQVGEDSLSHQPDPAIGVHLMDRYTFYVLEFLEEINPASQTNMNDLFQVCPKSLCVSTPGHRTDLFQRDPKNVLITDFFGSVRKVEITTETIKLQQDSEIMESSYKEDQMDEKLMEPLKYAEQLPVAQIIHQKPKLKDWHPPGGFILGLWALIIMVFFKTYGIKHMKFIF
B13: FAM8A1 (protein, UniProt Q9UBU6 1-413)
chain: MAEGPEEARGHPPGQDDGGGDHEPVPSLRGPPTTAVPCPRDDPQAEPQAPGRPTAPGLAAAAAADKLEPPRELRKRGEAASGSGAELQEQAGCEAPEAAAPRERPARLSAREYSRQVHEWLWQSYCGYLTWHSGLAAFPAYCSPQPSPQSFPSGGAAVPQAAAPPPPQLGYYNPFYFLSPGAAGPDPRTAAGISTPAPVAGLGPRAPHVQASVRATPVTRVGSAAPSRSPSETGRQAGREYVIPSLAHRFMAEMVDFFILFFIKATIVLSIMHLSGIKDISKFAMHYIIEEIDEDTSMEDLQKMMVVALIYRLLVCFYEIICIWGAGGATPGKFLLGLRVVTCDTSVLIAPSRVLVIPSSNVSITTSTIRALIKNFSIASFFPAFITLLFFQHNRTAYDIVAGTIVVKRNGVR
B14: UBE2J1 (protein, UniProt Q9Y385 1-318)
chain: METRYNLKSPAVKRLMKEAAELKDPTDHYHAQPLEDNLFEWHFTVRGPPDSDFDGGVYHGRIVLPPEYPMKPPSIILLTANGRFEVGKKICLSISGHHPETWQPSWSIRTALLAIIGFMPTKGEGAIGSLDYTPEERRALAKKSQDFCCEGCGSAMKDVLLPLKSGSDSSQADQEAKELARQISFKAEVNSSGKTISESDLNHSFSLTDLQDDIPTTFQGATASTSYGLQNSSAASFHQPTQPVAKNTSMSPRQRRAQQQSQRRLSTSPDVIQGHQPRDNHTDHGGSAVLIVILTLALAALIFRRIYLANEYIFDFEL

Amino acid sequences for entries named in this document (tags omitted). Residues count along the entry.
UniProt Q9Z2G6, residues 22-790: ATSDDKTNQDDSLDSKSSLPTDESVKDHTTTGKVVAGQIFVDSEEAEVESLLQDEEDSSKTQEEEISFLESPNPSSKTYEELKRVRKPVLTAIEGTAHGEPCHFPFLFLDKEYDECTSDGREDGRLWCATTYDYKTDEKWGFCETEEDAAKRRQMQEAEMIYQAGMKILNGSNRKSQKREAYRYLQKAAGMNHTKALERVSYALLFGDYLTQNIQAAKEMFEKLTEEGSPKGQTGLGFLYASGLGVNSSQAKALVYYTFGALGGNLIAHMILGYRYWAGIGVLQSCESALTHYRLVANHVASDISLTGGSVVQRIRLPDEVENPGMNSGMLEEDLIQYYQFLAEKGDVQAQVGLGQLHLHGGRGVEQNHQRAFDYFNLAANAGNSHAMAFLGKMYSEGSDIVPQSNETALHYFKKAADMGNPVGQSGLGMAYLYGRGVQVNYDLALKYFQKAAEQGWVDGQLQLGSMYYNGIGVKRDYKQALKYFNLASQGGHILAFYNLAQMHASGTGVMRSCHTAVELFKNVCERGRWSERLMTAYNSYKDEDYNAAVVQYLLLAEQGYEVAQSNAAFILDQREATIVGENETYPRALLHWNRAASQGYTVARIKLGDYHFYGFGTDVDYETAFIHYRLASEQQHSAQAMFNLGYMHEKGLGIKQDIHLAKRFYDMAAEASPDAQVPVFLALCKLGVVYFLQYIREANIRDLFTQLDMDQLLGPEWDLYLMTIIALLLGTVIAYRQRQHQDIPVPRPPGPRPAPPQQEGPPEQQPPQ
UniProt Q9DC69, residues 36-377: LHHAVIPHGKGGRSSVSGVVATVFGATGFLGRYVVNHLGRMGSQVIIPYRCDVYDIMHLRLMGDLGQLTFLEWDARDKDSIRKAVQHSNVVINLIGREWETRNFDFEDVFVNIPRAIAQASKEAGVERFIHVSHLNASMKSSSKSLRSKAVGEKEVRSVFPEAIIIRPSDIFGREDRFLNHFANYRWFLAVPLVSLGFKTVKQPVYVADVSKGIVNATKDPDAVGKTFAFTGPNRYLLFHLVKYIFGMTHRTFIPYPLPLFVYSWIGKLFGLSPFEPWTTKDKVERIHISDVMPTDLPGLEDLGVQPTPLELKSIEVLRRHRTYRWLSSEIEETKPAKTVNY
UniProt P01901, residues 22-369: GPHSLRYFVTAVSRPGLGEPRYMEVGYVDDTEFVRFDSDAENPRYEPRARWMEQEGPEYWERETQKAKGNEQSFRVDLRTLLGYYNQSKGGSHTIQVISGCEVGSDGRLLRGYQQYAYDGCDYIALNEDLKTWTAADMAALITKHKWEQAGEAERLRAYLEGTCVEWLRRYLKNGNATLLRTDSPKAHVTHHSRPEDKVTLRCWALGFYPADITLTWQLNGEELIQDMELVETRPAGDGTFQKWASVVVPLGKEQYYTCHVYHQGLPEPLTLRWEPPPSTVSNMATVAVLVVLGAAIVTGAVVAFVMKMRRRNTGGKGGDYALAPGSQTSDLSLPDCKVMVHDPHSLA
UniProt Q8JZU2, residues 14-311: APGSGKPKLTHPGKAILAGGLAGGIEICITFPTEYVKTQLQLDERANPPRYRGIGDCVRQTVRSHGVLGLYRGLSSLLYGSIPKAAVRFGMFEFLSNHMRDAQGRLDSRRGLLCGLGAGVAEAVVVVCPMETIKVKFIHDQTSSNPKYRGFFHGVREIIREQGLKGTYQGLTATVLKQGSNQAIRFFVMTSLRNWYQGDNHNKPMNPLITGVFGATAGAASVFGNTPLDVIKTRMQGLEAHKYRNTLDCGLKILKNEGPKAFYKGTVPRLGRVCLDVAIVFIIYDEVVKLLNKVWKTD
UniProt Q9UBV2, residues 22-794: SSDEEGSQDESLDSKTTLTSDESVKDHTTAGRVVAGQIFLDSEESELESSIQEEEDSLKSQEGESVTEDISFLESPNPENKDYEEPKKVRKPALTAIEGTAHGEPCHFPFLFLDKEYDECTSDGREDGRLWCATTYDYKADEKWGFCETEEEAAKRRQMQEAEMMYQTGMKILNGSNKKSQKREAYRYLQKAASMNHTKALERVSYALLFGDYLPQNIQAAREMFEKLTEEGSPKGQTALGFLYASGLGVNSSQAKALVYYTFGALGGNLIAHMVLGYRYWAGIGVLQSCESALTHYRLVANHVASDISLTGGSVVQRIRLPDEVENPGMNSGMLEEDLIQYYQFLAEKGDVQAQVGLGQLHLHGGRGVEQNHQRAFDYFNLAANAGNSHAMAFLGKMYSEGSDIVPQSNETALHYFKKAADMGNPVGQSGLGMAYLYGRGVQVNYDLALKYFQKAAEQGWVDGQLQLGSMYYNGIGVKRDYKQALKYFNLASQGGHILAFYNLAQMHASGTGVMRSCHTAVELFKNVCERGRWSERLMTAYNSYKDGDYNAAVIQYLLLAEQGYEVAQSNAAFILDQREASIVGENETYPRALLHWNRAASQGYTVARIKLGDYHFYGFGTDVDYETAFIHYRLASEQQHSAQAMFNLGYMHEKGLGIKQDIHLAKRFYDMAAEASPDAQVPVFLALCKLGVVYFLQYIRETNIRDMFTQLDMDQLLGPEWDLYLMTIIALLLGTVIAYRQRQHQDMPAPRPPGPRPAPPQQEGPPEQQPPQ
UniProt Q5T4B2, residues 23-595: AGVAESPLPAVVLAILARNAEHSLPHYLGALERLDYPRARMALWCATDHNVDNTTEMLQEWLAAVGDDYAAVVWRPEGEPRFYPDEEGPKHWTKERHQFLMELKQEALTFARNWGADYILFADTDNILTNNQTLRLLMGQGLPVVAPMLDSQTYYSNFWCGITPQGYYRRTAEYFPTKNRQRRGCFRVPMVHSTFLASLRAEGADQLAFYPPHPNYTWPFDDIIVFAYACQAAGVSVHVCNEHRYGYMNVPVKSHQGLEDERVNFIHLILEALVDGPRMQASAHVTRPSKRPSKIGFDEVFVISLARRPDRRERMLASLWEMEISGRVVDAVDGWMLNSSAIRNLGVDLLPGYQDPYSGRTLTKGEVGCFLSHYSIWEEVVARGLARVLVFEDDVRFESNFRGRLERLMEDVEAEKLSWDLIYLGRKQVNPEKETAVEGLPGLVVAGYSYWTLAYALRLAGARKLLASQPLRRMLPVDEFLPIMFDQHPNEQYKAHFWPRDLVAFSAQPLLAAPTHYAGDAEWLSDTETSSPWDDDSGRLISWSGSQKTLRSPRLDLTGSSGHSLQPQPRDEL
UniProt Q99720: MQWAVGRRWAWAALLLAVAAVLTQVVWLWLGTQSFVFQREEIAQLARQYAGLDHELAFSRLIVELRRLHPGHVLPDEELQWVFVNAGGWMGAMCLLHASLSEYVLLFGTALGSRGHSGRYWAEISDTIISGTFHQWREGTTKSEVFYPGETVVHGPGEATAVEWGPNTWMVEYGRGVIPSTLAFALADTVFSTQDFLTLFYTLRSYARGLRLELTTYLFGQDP
UniProt P18850: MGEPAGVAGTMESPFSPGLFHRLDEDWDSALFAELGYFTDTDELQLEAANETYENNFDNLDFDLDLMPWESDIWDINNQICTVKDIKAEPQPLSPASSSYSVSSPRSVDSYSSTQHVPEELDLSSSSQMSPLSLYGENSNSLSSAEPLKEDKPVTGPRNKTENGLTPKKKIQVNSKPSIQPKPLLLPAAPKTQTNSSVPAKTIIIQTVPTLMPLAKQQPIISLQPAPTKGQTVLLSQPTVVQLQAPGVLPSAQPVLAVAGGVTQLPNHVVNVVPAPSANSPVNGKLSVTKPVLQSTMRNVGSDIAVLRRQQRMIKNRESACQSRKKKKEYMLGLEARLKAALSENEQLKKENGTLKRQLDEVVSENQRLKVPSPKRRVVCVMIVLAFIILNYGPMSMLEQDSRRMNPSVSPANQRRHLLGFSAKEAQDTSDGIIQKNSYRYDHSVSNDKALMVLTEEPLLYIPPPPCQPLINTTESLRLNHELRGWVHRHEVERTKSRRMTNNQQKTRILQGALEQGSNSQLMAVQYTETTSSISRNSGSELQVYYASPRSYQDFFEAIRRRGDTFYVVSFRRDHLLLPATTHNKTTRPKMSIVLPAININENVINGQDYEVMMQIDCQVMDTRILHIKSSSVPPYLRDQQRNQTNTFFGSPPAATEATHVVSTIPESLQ

Each molecule was assayed against SEL1L (mouse) (mouse (endogenous in brown adipose tissue and adipocytes)) (UniProt Q9Z2G6) (assay: affinity purification with mass spectrometry; anti-SEL1L IP and LC-MS/MS, substrate screen: Hrd1-deficient compared with WT and Sel1L-deficient mouse brown adipose tissue and differentiated adipocytes; Group A hits also detected in WT, Group B hits only in Hrd1-deficient samples; 10 mg lysate).
“NADH dehydrogenase NDUFA9 (mouse) (from UniProt Q9DC69 36-377)” was tested, and the binding was “binds”. In the case of “MHC class I (H2-K1) (from UniProt P01901 22-369)”, the binding is reported as “binds”. With “SLC25A1 (mouse) (from UniProt Q8JZU2 14-311)” the binding was “binds”. B1 was tested, and the binding was “binds”. In the case of B2, the binding is reported as “binds”. For B3, the binding was “binds”. In the case of B4, the binding is reported as “binds”. For B5, the binding was “binds”. In the case of B6, the binding is reported as “binds”. For B7, the binding was “binds”. In the case of B8, the binding is reported as “binds”. In the case of B9, the binding is reported as “binds”.

The molecules below were run against SEL1L (human (endogenous in HEK293T)) (UniProt Q9UBV2) (assay: affinity purification with mass spectrometry; anti-SEL1L IP and LC-MS/MS, substrate screen: HRD1 KO compared with WT, SEL1L KO and IgG samples of HEK293T cells; Group A hits also detected in WT, Group B hits only in HRD1 KO; 10 mg lysate).
For CERCAM (from UniProt Q5T4B2 23-595), the binding was “binds”. In the case of SigmaR1 (from UniProt Q99720 1-223), the binding is reported as “binds”. In the case of ATF6 (from UniProt P18850 1-670), the binding is reported as “binds”. B10 was tested, and the binding was “binds”. With B11 the binding was “binds”. B12 was tested, and the binding was “binds”.

The molecules below were run against SEL1L (human (endogenous in HEK293T)) (UniProt Q9UBV2) (assay: affinity purification with mass spectrometry; anti-SEL1L IP and LC-MS/MS of the endogenous SEL1L interactome, WT vs. SEL1L KO HEK293T cells; 10 mg lysate).
With B13 the binding was “binds”. With B14 the binding was “binds”.

From paper PMC10803770
